Here are results for nine molecules from patent US20070112061A1, “Heat- or singlet oxygen-generating agents and cancer treatment compositions comprising organic peroxide or chemiluminescent compound” (priority 2004, published 2007).

The nature of data set [1]: Relative light intensity of chemiluminescence (PMA apparatus). Conditions: methanol solution mixed with 1N KOH methanol 10:1; Chemical formula A defined as 1. In kind it is physicochemical.
Data set [2] in a line: Formation of imidazole (indicates singlet oxygen generation efficiency). Type of data set: physicochemical. Particulars: for Solution Yield of imidazole: reaction started with 1N KOH/MeOH.

Regarding `O=Cc1ccc(C2=NC(OO)(c3ccccc3)C(c3ccccc3)=N2)cc1` (stereo not drawn) [Chemical formula K, 2-(4-Formylphenyl)-4-hydroperoxy-4,5-diphenyl-4H-isoimidazole], in data set [1], the “Relative amount of chemiluminescence” value was “˜0”. Besides, in data set [2], the “Solid reaction imidazole yield” value is on record as 55% and the “Solution Yield of imidazole” value is 58%.

Regarding `Cc1cc(C)c(C2=NC(OO)(c3ccccc3)C(c3ccccc3)=N2)c(C)c1` (stereo not drawn) [Chemical formula L, 4-Hydroperoxy-2-(2′,4′,6′-trimethylphenyl)-4,5-diphenyl-4H-isoimidazole], the “Relative amount of chemiluminescence” value in data set [1] turned out to be 2.2. For the same molecule, in data set [2], the “Solid reaction imidazole yield” value is recorded as “˜0%” and the “Solution Yield of imidazole” value is listed as “˜0%”.

With `OOC1(c2ccccc2)N=C(c2cccc(O)c2)N=C1c1ccccc1` (stereo not drawn) [Chemical formula D], the “Relative amount of chemiluminescence” value in data set [1] was 0.232.

As to `OOC1(c2ccccc2)N=C(c2ccc(O)cc2)N=C1c1ccccc1` (stereo not drawn) [Chemical formula C, 4-Hydroperoxy-2-(4-hydroxyphenyl)-4,5-diphenyl-4H-imidazole], the “Relative amount of chemiluminescence” value in data set [1] is recorded as 1.02.

Regarding `OOC1(c2ccccc2)N=C(c2ccccc2)N=C1c1ccccc1` (stereo not drawn) [Chemical formula A, 4-Hydroperoxy-2,4,5-triphenyl-4H-isoimidazole], the “Relative amount of chemiluminescence” value in data set [1] was 1. In data set [2], the “Solid reaction imidazole yield” value turned out to be 45% and the “Solution Yield of imidazole” value is on record as 13%.

On to `Nc1ccc(C2=NC(OO)(c3ccccc3)C(c3ccccc3)=N2)cc1` (stereo not drawn) [Chemical formula H, 2-(4-Aminophenyl)-4-hydroperoxy-4,5-diphenyl-4H-isoimidazole], for which, in data set [1], the “Relative amount of chemiluminescence” value was 1.6. In addition, in data set [2], the “Solid reaction imidazole yield” value is “˜0%” and the “Solution Yield of imidazole” value is reported as 3%.

For `O=[N+]([O-])c1ccc(C2=NC(OO)(c3ccccc3)C(c3ccccc3)=N2)cc1` (stereo not drawn) [Chemical formula J], the “Relative amount of chemiluminescence” value in data set [1] worked out at 0.60. Moreover, in data set [2], the “Solid reaction imidazole yield” value turned out to be 50% and the “Solution Yield of imidazole” value amounted to 49%.

Turning to `CC(C)(C)[Si](C)(C)OOC1(c2ccccc2)N=C(c2ccccc2)N=C1c1ccccc1` (stereo not drawn) [Chemical formula I, 4-t-Butyldimethylsilylperoxy-2,4,5-triphenyl-4H-isoimidazole], in data set [1], the “Relative amount of chemiluminescence” value stood at 0.58.

For `CN(C)c1ccc(C2=NC(OO)(c3ccc(F)cc3)C(c3ccc(F)cc3)=N2)cc1` (stereo not drawn) [Chemical formula B, 4,5-Bis(4-fluorophenyl)-4-hydroperoxy-2-(4-dimethylaminophenyl)-4H-isoimidazole], the “Relative amount of chemiluminescence” value in data set [1] stood at 160. In addition, in data set [2], the “Solid reaction imidazole yield” value was “˜0%” and the “Solution Yield of imidazole” value was “˜0%”.
